# Measured values as given in patent US20200292553A1, “COMPOSITION FOR PREDICTING OR DIAGNOSING LIVER DISEASE, AND LIVER DISEASE PREDICTION OR DIAGNOSIS METHOD USING SAME” (SEOUL NATIONAL UNIVERSITY HOSPITAL, priority 2017, published 2020).
# For at least one compound, name, drawing or mass did not settle the structure.
# Columns and labels:
# [1] = system: HSCs; test: GDF15 mRNA expression after palmitate treatment, HSCs; assay type: cell-based
# [2] = system: hepatocytes; test: GDF15 mRNA expression after palmitate treatment, hepatocytes; assay type: cell-based
structure (smiles),measurement,setting,value
"CCCCCCCCCCCCCCCC(=O)O [palmate, palmitate]",GDF15 mRNA expression level,"[1]; 200 μM, after 3 hours, no significance, FIG. 5A",slightly elevated
same,change in GDF15 mRNA expression level,"[1]; after 6 hours, FIG. 5B",no significant changes
same,GDF15 mRNA expression change,"[2]; after 3 hours, FIG. 5A",no change
same,change in GDF15 mRNA expression level,"[2]; after 6 hours, FIG. 5B",no significant changes
